These are yes or no findings as the source states them, for the method shown. For part of these data: A result given as binding can be weak or reduced; the word gives no strength. Sequences can lack the tags named with a protein.
Key:
[1] = target: T1, GST-tagged Aeromonas caviae flagellin-specific chaperone FlaJ (GST-FlaJ) (Aeromonas caviae) (UniProt Q9R9R5); experiment: pull-down; 'handover': Maf1-His–FlaA/B complex purified from wild-type A. caviae mixed with equimolar purified GST-FlaJ in vitro, then glutathione affinity chromatography; load, flow-through and elution blotted with α-His, α-GST and α-FlaA/B(+pse); both purified
T1 sequence: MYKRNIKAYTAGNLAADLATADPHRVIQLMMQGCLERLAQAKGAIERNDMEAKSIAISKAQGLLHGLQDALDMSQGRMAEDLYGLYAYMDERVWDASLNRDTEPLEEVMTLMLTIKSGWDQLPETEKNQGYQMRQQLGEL

[2] = target: unglycosylated Aeromonas caviae FlaA purified from E. coli, FlaA (−pse) (Aeromonas caviae); experiment: far-Western, overlay or dot blot; purified proteins resolved by SDS-PAGE and blotted; membrane incubated in PBS with purified GST or GST-FlaJ at 0.01 mg ml^−1; detected with αGST-HRP conjugate and ECL; both purified
[3] = target: unglycosylated Aeromonas caviae FlaA purified from E. coli, FlaA (−pse) (Aeromonas caviae); experiment: far-Western, overlay or dot blot; glycosylated and unglycosylated FlaA titrated across an SDS-PAGE gel, transferred to nitrocellulose, probed with a constant concentration of GST-FlaJ; αGST-HRP, densitometry, triplicate blots; both purified

Molecule | binding [1] | binding [2] | binding [3]
Aeromonas caviae Maf1 with C-terminal penta-His tag (Maf1-His) (enzyme) | no binding |  | 
GST-tagged Aeromonas caviae flagellin-specific chaperone FlaJ (GST-FlaJ) (protein, UniProt Q9R9R5 1-140) MYKRNIKAYTAGNLAADLATADPHRVIQLMMQGCLERLAQAKGAIERNDMEAKSIAISKAQGLLHGLQDALDMSQGRMAEDLYGLYAYMDERVWDASLNRDTEPLEEVMTLMLTIKSGWDQLPETEKNQGYQMRQQLGEL |  | binds | binds

— paper PMC4065374
